Laboratory results: PubChem BioAssay AID1224826 (NIAID, 2016)
Test: 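Regulators of Tlr4 signalling leading to Tnf-alpha expression in macrophages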 (primary screen). System: RAW264.7 G9 macrophages from mouse bearing reporters for p65 (GFP) and the Tnf promoter (mCherry). Knock-down reagent: siRNA pool against mouse genes, 100 nM. Timing: 16 h of LPS stimulation, after 2 days of siRNA transfection. Treatment: bacterial lipopolysaccharide (Salmonella minnesota R595), 10 ng/ml. Measured: 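Imaged Tnf reporter mCherry in nuclei, minus background, normalised per plate to the median and expressed as robust z-scores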. Reading the numbers: Tnf reporter robust z-score: higher = stronger Tnf promoter reporter signal after LPS; Tnf reporter intensity: higher = stronger Tnf promoter reporter signal. Active means: 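Called active when robust z-score is at most -1.3, matching the median of the Tlr4 knock-down control, or over 3; control wells and wells with under 50 cells never active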. Calls: active = Tnf reporter clearly lowered or raised; inactive = no clear change in Tnf reporter.
This is an unselected part of about 17,000 reagents. Over the whole deposit, about 1,110 (6.6%) are marked active. 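Active means lowered or raised reporter signal; replicate intensities are raw and not normalised per plate.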 Unmarked entries are inactive. Some reagents were tested in more than one well and are listed for each. Not all columns of the deposit are shown.

no.	Gene	Tnf reporter robust z-score	fewer than 50 cells in well	Tnf reporter intensity, replicate 1
1	Bspry (GeneID 192120)		fewer than 50 cells per well; well left out of calls	64.2
2	Creld1 (GeneID 171508)	0.33	enough cells in well	215
3	Mrps31 (GeneID 57312)	2.35	enough cells in well	295
4	Gm10336 (GeneID 328186)	0.43	enough cells in well	164
5	Plk5 (GeneID 216166)	-0.67	enough cells in well	122
6	Slco1a5 (GeneID 108096)	-0.52	enough cells in well	86.7
7	Map2k7 (GeneID 26400)		fewer than 50 cells per well; well left out of calls	75.8
8	Prep (GeneID 19072)	0.48	enough cells in well	154
9	Cgnl1 (GeneID 68178)	0.01	enough cells in well	155
10	Ampd2 (GeneID 109674)	-0.29	enough cells in well	207
11	Trpd52l3 (GeneID 66745)	0.64	enough cells in well	139
12	Trpd52l3 (GeneID 66745)		fewer than 50 cells per well; well left out of calls	198
13	Ap3s1 (GeneID 11777)	-1.24	enough cells in well	108
14	4930483J18Rik (GeneID 67638)		fewer than 50 cells per well; well left out of calls	250
15	Gck (GeneID 103988)	-0.74	enough cells in well	166
16	Ccl11 (GeneID 20292)	1.34	enough cells in well	319
17	Ing2 (GeneID 69260)	1.35	enough cells in well	324
18	Chmp1b (GeneID 67064)		fewer than 50 cells per well; well left out of calls	158
19	Myo3b (GeneID 329421)	-1.31 (active)	enough cells in well	94.5
20	Eya1 (GeneID 14048)	0.01	enough cells in well	229
21	Aanat (GeneID 11298)	0.37	enough cells in well	181
22	Jmjd6 (GeneID 107817)	-0.47	enough cells in well	195
23	Grk3 (GeneID 320129)	0.01	enough cells in well	257
24	Grk3 (GeneID 320129)	-0.35	enough cells in well	185
25	Gnb2 (GeneID 14693)	0.6	enough cells in well	312
26	Or51v14 (GeneID 258808)	2.02	enough cells in well	160
27	Inmt (GeneID 21743)	0.03	enough cells in well	128
28	Cyren (GeneID 78412)		fewer than 50 cells per well; well left out of calls	116
29	Rab22a (GeneID 19334)	-0.45	enough cells in well	260
30	Grhl1 (GeneID 195733)	-1.75 (active)	enough cells in well	45.8
31	Ccdc74a (GeneID 72315)	-0.9	enough cells in well	112
32	Tenm1 (GeneID 23963)	0.89	enough cells in well	282
33	Tmem223 (GeneID 66836)	-1.06	enough cells in well	185
34	Cdx2 (GeneID 12591)	0.14	enough cells in well	282
35	Igsf8 (GeneID 140559)		fewer than 50 cells per well; well left out of calls	233
36	Myl10 (GeneID 59310)	-1.25	enough cells in well	141
37	Ptpn14 (GeneID 19250)	-1.13	enough cells in well	154
38	Armc8 (GeneID 74125)	-0.22	enough cells in well	131
39	Utp15 (GeneID 105372)	-0.39	enough cells in well	173
40	Loxl1 (GeneID 16949)	0.78	enough cells in well	190
41	Or1b1 (GeneID 259053)	-0.56	enough cells in well	151
42	Zfp946 (GeneID 74149)	-0.11	enough cells in well	271
43	Gap43 (GeneID 14432)	-1.18	enough cells in well	142
44	Abhd12 (GeneID 76192)	1.73	enough cells in well	235
45	Mup1 (GeneID 17840)	-0.76	enough cells in well	156
46	2410004B18Rik (GeneID 66421)		fewer than 50 cells per well; well left out of calls	108
47	Kif13b (GeneID 16554)	1.65	enough cells in well	230
48	Rad51d (GeneID 19364)	-0.3	enough cells in well	324
49	Tuba1c (GeneID 22146)		fewer than 50 cells per well; well left out of calls	37.4
50	Tbkbp1 (GeneID 73174)		fewer than 50 cells per well; well left out of calls	160
51	Dcaf12l2 (GeneID 245403)	3.81 (active)	enough cells in well	466
52	Ccdc66 (GeneID 320234)	2.08	enough cells in well	349
53	Plau (GeneID 18792)	-0.31	enough cells in well	197
54	Myo3a (GeneID 667663)	1.7	enough cells in well	310
55	Tafa1 (GeneID 320265)	2.02	enough cells in well	201
56	Mbd1 (GeneID 17190)	-0.49	enough cells in well	250
57	Fermt3 (GeneID 108101)	-1.3 (active)	enough cells in well	137
58	Erich3 (GeneID 209601)	-1.17	enough cells in well	133

Laid out differently: entries from further up
Gene | Tnf reporter robust z-score | fewer than 50 cells in well | Tnf reporter intensity, replicate 1
Trpd52l3 (GeneID 66745) | – | fewer than 50 cells per well; well left out of calls | 198
Ap3s1 (GeneID 11777) | -1.24 | enough cells in well | 108
4930483J18Rik (GeneID 67638) | – | fewer than 50 cells per well; well left out of calls | 250
Gck (GeneID 103988) | -0.74 | enough cells in well | 166
Ccl11 (GeneID 20292) | 1.34 | enough cells in well | 319
Ing2 (GeneID 69260) | 1.35 | enough cells in well | 324
Chmp1b (GeneID 67064) | – | fewer than 50 cells per well; well left out of calls | 158
Myo3b (GeneID 329421) | -1.31 (active) | enough cells in well | 94.5
